Experimental data: PubChem BioAssay AID1259275 (Sanger Institute, 2017)
This is a random part of 794 reagents tested. Of all reagents, 13 (1.6%) are marked active. 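Calls mark knock-downs lethal by themselves, not drug synergy; drugs went in a day after transfection, with DMSO as vehicle.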 No viability above 1 is reported: the scale is capped. Reagent sequences are not shown. The record does not give: the amount of reagent, the time to read-out.

Assay: 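Knock-downs that cut viability on their own or combined with BYL719, cetuximab or trametinib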 (primary screen)
Cell system: COLO320HSR human colorectal cancer cells
Knock-down reagent: siRNA pool against human genes
Treatment: anchor drug added one day after transfection: BYL719 at 1 µM, cetuximab at 5 µg/ml or trametinib at 10 nM; DMSO as vehicle arm
Read-out: 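Viability averaged over replicates as a fraction of the non-targeting pool, a robust z-score for knock-down alone, and synergy scores with BYL719 (1 µM), cetuximab (5 µg/ml) or trametinib (10 nM)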
Scale: robust z-score, siRNA alone: higher = more viable cells; strongly negative means essential; viability, knock-down alone (DMSO): higher = more viable cells; synergy score with BYL719 and synergy score with cetuximab and synergy score with trametinib: higher = stronger combined killing with drug
Rule for the call: 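Essential means the knock-down by itself gives a robust z-score lower than -3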
Calls: active = essential (siRNA alone); inactive = no change (siRNA alone)

Gene	robust z-score, siRNA alone	viability, knock-down alone (DMSO) (fraction of control)	synergy score with BYL719	synergy score with cetuximab	synergy score with trametinib	outcome
CLK3	0.579	0.987	-0.154	-0.0963	-0.0389	inactive
AAK1	-1.37	0.811	-0.0484	-0.0328	0.0316	inactive
TBK1	0.0333	0.937	-0.121	-0.0322	-0.0248	inactive
HK2	-0.96	0.848	-0.0933	0.0186	0.0207	inactive
ARAF	0.402	0.971	-0.112	-0.0314	-0.0544	inactive
TYRO3	0.611	0.99	-0.0615	-0.0393	0.0279	inactive
MECOM	-0.305	0.907	-0.162	-0.174	-0.117	inactive
RPS6KA1	-1.87	0.766	-0.0329	-0.0394	-0.0655	inactive
LMTK3	-2.65	0.695	-0.0517	-0.0161	-0.0132	inactive
GUK1	-2.47	0.712	-0.264	-0.127	-0.0547	inactive
IRAK1	0.0119	0.936	-0.065	-0.0741	-0.0887	inactive
FGFR2	0.726	1	-0.0186	-0.0893	-0.0259	inactive
BRSK2	0.722	1	-0.0512	-0.0167	-0.000249	inactive
DYRK1B	-0.171	0.919	-0.0568	-0.0263	-0.105	inactive
STAG2	0.726	1	-0.0246	-0.0893	-0.0259	inactive
FBXW7	0.726	1	0.00759	-0.00108	-0.0259	inactive
PRKCQ	0.726	1	-0.103	-0.0893	-0.0259	inactive
BUB1B	-1.66	0.785	-0.0632	-0.0393	-0.119	inactive
CDK9	0.726	1	-0.173	-0.0893	-0.0259	inactive
AURKA	-2.6	0.699	-0.0609	-0.0661	0.00415	inactive
CDK6	0.726	1	0.0789	-0.0893	-0.0259	inactive
TRIM27	0.236	0.956	-0.0626	-0.13	-0.0441	inactive
MYLK3	-0.527	0.887	-0.0327	-0.156	-0.0188	inactive
IGF1R	-0.86	0.857	-0.113	-0.0564	-0.12	inactive
MUSK	-0.815	0.861	-0.0231	-0.0357	-0.0129	inactive
GRK2	0.54	0.983	-0.0375	0.00781	0.0195	inactive
PIP5K1A	-1.81	0.771	-0.0477	-0.0872	-0.00336	inactive
FER	0.726	1	-0.25	-0.0893	-0.0259	inactive
MGA	-1.25	0.822	-0.159	0.0841	0.0161	inactive
RIOK1	-1.33	0.814	-0.1	-0.118	-0.0885	inactive
DAPK2	0.593	0.988	0.0284	-0.00338	0.0567	inactive
RFK	0.726	1	-0.0817	-0.0636	-0.0259	inactive
ETNK2	-2.67	0.693	-0.048	-0.121	-0.0747	inactive
STK3	0.726	1	-0.183	-0.0893	-0.0259	inactive
POMK	0.726	1	-0.137	-0.0823	-0.0166	inactive
AURKC	0.726	1	-0.0796	-0.0893	-0.0259	inactive
PRKACA	0.726	1	-0.00996	-0.0893	-0.0259	inactive
BRDT	0.16	0.949	-0.137	-0.0874	-0.028	inactive
NR2F2	-3.11	0.654	-0.124	-0.29	-0.254	active
SPHK2	0.726	1	-0.0227	-0.0893	-0.0259	inactive
EPHA3	-0.396	0.899	-0.296	-0.182	-0.0721	inactive
BRWD1	-1.43	0.805	-0.104	-0.19	-0.204	inactive
MAP3K5	0.726	1	-0.217	-0.0893	-0.0259	inactive
BRD4	-2.41	0.717	0.0361	-0.0603	-0.0203	inactive
WEE1	-3.38	0.629	-0.00504	-0.0251	-0.0405	active
GK2	0.726	1	-0.0599	-0.0893	0.0387	inactive
POLR2B	-3.76	0.595	-0.0842	-0.0208	-0.00584	active
STRADB	0.726	1	-0.228	-0.0893	0.0477	inactive
GNAS	0.726	1	-0.0141	-0.0689	-0.0259	inactive
ASPM	-0.69	0.872	-0.0531	-0.206	-0.0686	inactive
